For the data set, the system named is tyrosinase enzyme. The data set can be described thus: Inhibition percentage analysis at the tyrosinase enzyme electrode containing gold nanoparticles in a flow system. The class given is biochemical. The settings on record: for contact time at which the highest inhibition percentage is exhibited: agricultural chemical about 0.01 ppb; for Detection limit: gold nanoparticle/glass carbon electrode, 1 mM catechol, the present invention.

SMILES strings stand for the structures.

Turning to `O=C(O)COc1ccc(Cl)cc1Cl` [2,4-dichlorophenoxyacetic acid], the “contact time at which the highest inhibition percentage is exhibited” value is listed as “about 200 seconds” and the Detection limit is 0.55 ppt.

As for `CCNc1nc(Cl)nc(NC(C)C)n1` [atrazine], the “contact time at which the highest inhibition percentage is exhibited” value was “about 200 seconds” and the Detection limit is on record as 0.35 ppt.
